# Experimental data from PubChem BioAssay AID2685 (National Center for Advancing Translational Sciences (NCATS), 2010).
# Some of the results follow. The main result of the screen is listed elsewhere. These columns were measured beside it and carry no call. Most of these compounds were active or inconclusive in the main read-out, so they are no random draw. Potencies come from curve fits of mixed quality, noted in brackets.
# Experiment: qHTS Assay for Lipid Storage Modulators in Drosophila S3 Cells;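 on cell number change: cells counted by Cell Tracker Red CMTPX staining in the red channel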
# Settings: BODIPY lipid droplet fluorescence, 18-24 h; for cell number change: measured here: cell count max response, cells fed with added oleic acid
# In short: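 Drosophila S3 cells loaded with oleic acid (400 uM, as added) and compounds at several concentrations; lipid droplets imaged by 488-nm laser-scanning cytometry, 500–530 nm intensity and object ratio to cell channel. Percent activity normalized to 20 uM Triacsin C.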
# [1] = measured here: cell number channel AC50, cells fed with added oleic acid
# [2] = measured here: lipid fluorescence (Fed channel) AC50, cells fed with added oleic acid
SMILES,cell number change [%],AC50 [1],AC50 [2]
O=C1NC(=O)N(c2cccc(Cl)c2)C(=O)/C1=C\c1ccc(Sc2nc3ccccc3[nH]2)o1,-96,"29.1 µM [falling, single point]",–
O=C(Nc1cccc(OC(=O)N2CCCCC2)c1)N1CCOCC1,48.1,"0.231 µM [rising, full curve, poor fit]",–
CC(=O)c1c(O)n(C)c(=S)n(-c2ccccc2)c1=O,-6.14,–,"6.51 µM [falling, single point]"
CCCNC(=O)Cn1cnc2sc(C(=O)N3CCC4(CC3)OCCO4)c(C)c2c1=O,-13,–,"2.91 µM [rising, partial curve, poor fit]"
COC(=O)C1=C(c2ccc(C(C)=O)cc2)C[C@@H]2CC[C@H]1N2C(=O)NCCO,21.7,"1.16 µM [falling, single point]","0.116 µM [rising, single point]"
COCCOC(=O)c1c(N)n(Cc2ccco2)c2nc3ccccc3nc12,-54.5,"32.6 µM [falling, partial curve]","14.6 µM [falling, partial curve, poor fit]"
C=CCn1c(O)c(C=NCCCOc2ccc(CC)cc2)c(=O)[nH]c1=S,-45.6,"14.6 µM [falling, partial curve]","18.4 µM [falling, partial curve]"
CC(=O)Nc1ccccc1C(=O)OCc1ccc(C(=O)c2ccccc2)cc1,-12.4,–,"18.4 µM [falling, single point]"
O=C(CCCN1CCC(n2c(=O)[nH]c3ccccc32)CC1)c1ccc(F)cc1,28,–,"0.92 µM [rising, full curve, poor fit]"
COC(=O)C1=C(c2ccc(OC(F)(F)F)cc2)C[C@@H]2CC[C@H]1N2C(=O)NC1CC1,4.21,–,"0.00411 µM [rising, full curve, poor fit]"
C#CC1(OC(=O)c2ccccc2)CC(C)N(C)CC1C (stereo unspecified),0.265,–,"25.9 µM [rising, single point]"
COC(=NC1CCCCC1)C(O)c1c[nH]c2ccccc12 (stereo unspecified),-4.94,–,"0.259 µM [falling, full curve]"
COC(=O)CC1(CC(=O)OC)C(=O)NC(=O)NC1=O,2.42,–,–
CCN1C(=O)C(=Cc2ccc(C)s2)C(=O)N(CC)C1=S,-2.41,–,"0.651 µM [falling, full curve, poor fit]"
COc1ccc(-c2nn(CCC#N)cc2C(=O)Nc2ccc(C(C)=O)cc2)cc1[N+](=O)[O-],-22.6,–,"0.58 µM [rising, single point]"
CC(=O)Nc1ccc2c(c1)CC1(C(=O)N(C)C(=O)N(C)C1=O)C1CCCN21 (stereo unspecified),–,–,"6.51 µM [falling, single point]"
CC1CCN(S(=O)(=O)c2ccc(NN=C(C#N)C#N)cc2)CC1,-6.09,–,"0.00517 µM [rising, full curve, poor fit]"
Cc1ccc(Cn2nnnc2CN2CCC(n3nnc4ccccc43)CC2)cc1,29.6,–,"2.31 µM [rising, partial curve, poor fit]"
CCN(CC)c1ccc(CN2CC=C(c3ccc(F)cc3)CC2)cc1,-56.9,"29.1 µM [falling, single point]","29.1 µM [falling, single point]"
Clc1ccc(COC(Cn2ccnc2)c2ccc(Cl)cc2Cl)c(Cl)c1 (stereo unspecified),-81,"16.4 µM [falling, single point]","18.4 µM [falling, single point]"

SMILES,cell number change [%],AC50 [1],AC50 [2]
COCCOC(=O)C1=C(C)OC(N)=C(C(=O)OC)C12C(=O)Nc1ccccc12 (stereo unspecified),7.11,–,–
O=C1CSC2N1CCNC21CCCCC1 (stereo unspecified),1.92,–,"1.46 µM [rising, full curve, poor fit]"
Cc1cc(/C=C2/C(=O)NC(=O)N(C)C2=O)c(C)n1-c1ccccc1,45.6,"29.1 µM [rising, single point]","7.31 µM [falling, single point]"
CCN(CC)P(=O)(NC(=O)C(Cl)(Cl)Cl)N(CC)CC.[Cl-].[Cl-].[Cl-].[Nd+3],-95.1,"20.6 µM [falling, partial curve]","0.116 µM [falling, full curve, poor fit]"
O=c1[nH]c(=O)n(CCc2ccccc2)c(O)c1C=NCCN1CCNCC1,9.26,"5.8 µM [falling, single point]",–
CC(=O)OC1(c2ccccc2)CC(C(C)(C)C)CN(C(C)(C)C)C1 (stereo unspecified),-4.82,"6.51 µM [falling, single point]","32.6 µM [falling, single point]"
CCOc1cc(-c2nc3c(C)cccn3c2NCC2CCCO2)ccc1O (stereo unspecified),5.02,–,–
COC(=O)C1=C(c2ccc(F)cc2OCc2ccccc2)C[C@@H]2CC[C@H]1N2C(=O)NCc1ccc([N+](=O)[O-])cc1,-10.7,–,"1.64 µM [rising, single point]"
CC(C)c1ccc(NC(=O)CSc2nnc(OC(=O)N(C)C)n2C2CC2)cc1,-74.8,"29.1 µM [falling, single point]","29.1 µM [rising, single point]"
CC(C)(C)[C@]1(O)C[C@@H]2OC(=O)C[C@@]23C(=O)O[C@@H]2OC(=O)[C@H](O)[C@]213,-32.8,"32.6 µM [falling, single point]","3.26 µM [falling, full curve]"
O=C(Nc1ccccc1OC(=O)N1CCOCC1)N1CCOCC1,-6.71,–,–
O=c1[nH]c(=S)[nH]c(O)c1/C=C1/C=c2ccccc2=N1,–,–,"14.6 µM [falling, partial curve]"
Cn1cc(Br)c(C(=O)Nc2ccc3c(C(F)(F)F)cc(=O)oc3c2)n1,-6.52,"7.31 µM [falling, single point]","5.17 µM [falling, partial curve]"
CCC(=NCCc1ccccc1)c1c(O)n(C2CCCCC2)c(=O)[nH]c1=O,-10.4,–,"6.51 µM [rising, single point]"
CCCOc1ccc(C(C)=O)cc1Cc1c(O)[nH]c(=S)[nH]c1=O,-17.1,"3.66 µM [falling, single point]",–
COc1cccc(CN2CCCC(C(=O)c3ccccc3SC)C2)c1O (stereo unspecified),17.6,–,"16.4 µM [rising, partial curve]"
COc1cccc(CN2CCCCC2c2cccnc2)c1 (stereo unspecified),-7.48,–,"0.92 µM [rising, full curve, poor fit]"
CN(C)C(Cc1ccccc1)C(=O)c1ccccc1 (stereo unspecified),3.86,–,"25.9 µM [rising, partial curve]"
CSC(=Nc1ccccc1)c1c(O)n(C)c(=O)n(C)c1=O,-0.768,–,–
OC1(CN2CCOCC2)C2CC3CC(C2)CC1C3 (stereo unspecified),–,–,"7.31 µM [falling, partial curve]"

SMILES,cell number change [%],AC50 [1],AC50 [2]
CCOC(=O)c1c(P(=O)(N2CCOCC2)N2CCOCC2)noc1N,–,"1.84 µM [falling, full curve]",–
COc1ccc(CNCCc2cccc(F)c2)c2ccccc12,-33.8,"18.4 µM [falling, single point]","14.6 µM [rising, partial curve]"
COc1cccc(Oc2c(C)oc3cc(OC(=O)N(C)C)ccc3c2=O)c1,-18.3,"0.651 µM [falling, partial curve, poor fit]",–
COc1ccc(OC)c(C(O)C(C)N)c1 (stereo unspecified),-9.5,–,"3.66 µM [falling, full curve, poor fit]"
COc1cc2c(cc1OC)-c1c(OC)c(OC)cc3c1C(C2)N(C)CC3 (stereo unspecified),-16.5,–,"13 µM [rising, single point]"
CC(=NCCCn1ccnc1)c1c(O)n(C2CCCCC2)c(=O)[nH]c1=O,20.6,–,–
CCOC(=O)c1c(N)n(Cc2ccc(OC)cc2)c2nc3ccccc3nc12,22.1,"0.0651 µM [rising, full curve, poor fit]","0.058 µM [rising, partial curve, poor fit]"
C=CCn1c(O)c(C(CC)=NCCCO)c(=O)[nH]c1=O,2.82,–,–
O[C@H]1C2CCC1C(N1CCCCC1)CC2 (stereo partly specified),-44.1,"1.16 µM [falling, full curve]","29.1 µM [falling, single point]"
COc1ccc(OC(=O)N(C)C)c(CN(C)C)c1,-22.6,–,"5.8 µM [falling, partial curve, poor fit]"
COc1ccccc1OCCCn1cc(C(=O)C2CC2)c2ccccc21,15.9,–,"16.4 µM [rising, single point]"
c1ccc(CN2CCc3nc4ccccc4cc3C2)cc1,–,–,"0.0146 µM [rising, full curve, poor fit]"
Cn1cc(C(=O)NC2CC2)c2ccccc21,8.56,–,–
Cc1cc(C)nc(/N=C(\N)c2c(O)[nH]c(=O)[nH]c2=O)n1,–,–,"0.651 µM [rising, single point]"
CN(C)C1(CNC(=O)c2ccc(Cl)c(S(=O)(=O)NCc3ccco3)c2)CCCCC1,-11,–,–
Nc1ccccc1C(=O)OCCc1ccccc1,-63.2,"29.1 µM [falling, single point]",–
O=C1NC(=O)C(CCc2ccncc2)(CCc2ccccn2)C(=O)N1c1ccc(Br)cc1 (stereo unspecified),21.1,–,"32.6 µM [rising, single point]"
COC(=O)C1=C(c2ccc(C(C)=O)cc2)C[C@@H]2CC[C@H]1N2C(=O)N1CCCC1,-32.5,"0.146 µM [falling, full curve, poor fit]","29.1 µM [falling, single point]"

# Single records, as listed above. Order of values: cell number change [%] | AC50 [1] | AC50 [2]
# `COC(=O)C1=C(c2ccc(C(C)=O)cc2)C[C@@H]2CC[C@H]1N2C(=O)N1CCCC1` is entered as -32.5 | 0.146 µM [falling, full curve, poor fit] | 29.1 µM [falling, single point]
# `COc1ccccc1OCCCn1cc(C(=O)C2CC2)c2ccccc21` is entered as 15.9 | – | 16.4 µM [rising, single point]
# `CCOC(=O)c1c(N)n(Cc2ccc(OC)cc2)c2nc3ccccc3nc12` is entered as 22.1 | 0.0651 µM [rising, full curve, poor fit] | 0.058 µM [rising, partial curve, poor fit]
